At least one structure is not confirmed: it was looked up by name or label, or the drawing left a doubt.
Test system: MYO2bus-5 C. elegans
Assay: Mobility Coefficient (MoCo) chronological lifespan assay, 12 well plates, FK506 vs DMSO
Format: in vivo, Caenorhabditis elegans
Details: for MoCo relative to initial MoCo on Day 0, vs mock treated worms: 51 FK506 treated vs 42 DMSO mock treated worms, BIN 1, period of 8 days

## C=CC[C@@H]1/C=C(\C)C[C@H](C)C[C@H](OC)[C@H]2O[C@@](O)(C(=O)C(=O)N3CCCC[C@H]3C(=O)O[C@H](/C(C)=C/[C@@H]3CC[C@@H](O)[C@H](OC)C3)[C@H](C)[C@@H](O)CC1=O)[C@H](C)C[C@@H]2OC [FK506]
12 well plate, approximately 100 eggs, FUDR on day 0, 1 s and 10 s time lapse images, FIG. 13
  relative MoCo (fraction of day 0 MoCo) vs DMSO: higher MoCo for longer
Image interval 1 s, FIG. 15
  MoCo relative to initial MoCo on Day 0, vs mock treated worms: higher mobility than mock treated worms
Image interval 10 s, FIG. 16
  MoCo relative to initial MoCo on Day 0, vs mock treated worms: higher mobility than mock treated worms
